# From the supplement of paper PMC10849652
# By UniProt entry, the sequences of proteins in these tests, tags left out. Where a name states a change or a piece, a line headed by the entry shows the natural chain unless it says otherwise.
# UniProt P51617, whole entry, looked up: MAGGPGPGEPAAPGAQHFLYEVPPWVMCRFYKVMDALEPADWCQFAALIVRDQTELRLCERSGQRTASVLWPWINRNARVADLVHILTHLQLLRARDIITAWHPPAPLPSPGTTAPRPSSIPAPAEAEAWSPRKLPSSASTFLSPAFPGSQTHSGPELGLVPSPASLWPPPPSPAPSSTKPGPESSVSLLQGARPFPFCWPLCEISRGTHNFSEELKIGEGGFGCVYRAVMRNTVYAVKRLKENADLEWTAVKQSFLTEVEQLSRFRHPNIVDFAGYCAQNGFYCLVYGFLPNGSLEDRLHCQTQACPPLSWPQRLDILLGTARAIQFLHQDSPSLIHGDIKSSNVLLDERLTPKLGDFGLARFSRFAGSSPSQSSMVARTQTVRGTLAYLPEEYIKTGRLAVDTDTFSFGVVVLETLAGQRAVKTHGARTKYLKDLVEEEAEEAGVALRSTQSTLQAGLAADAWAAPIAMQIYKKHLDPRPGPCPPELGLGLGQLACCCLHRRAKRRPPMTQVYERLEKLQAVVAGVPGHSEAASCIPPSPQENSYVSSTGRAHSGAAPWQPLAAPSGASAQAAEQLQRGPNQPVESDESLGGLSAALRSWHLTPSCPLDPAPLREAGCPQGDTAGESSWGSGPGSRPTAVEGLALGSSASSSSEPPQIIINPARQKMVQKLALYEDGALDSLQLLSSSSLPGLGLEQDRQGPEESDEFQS
# UniProt Q9H1B7, whole entry, looked up: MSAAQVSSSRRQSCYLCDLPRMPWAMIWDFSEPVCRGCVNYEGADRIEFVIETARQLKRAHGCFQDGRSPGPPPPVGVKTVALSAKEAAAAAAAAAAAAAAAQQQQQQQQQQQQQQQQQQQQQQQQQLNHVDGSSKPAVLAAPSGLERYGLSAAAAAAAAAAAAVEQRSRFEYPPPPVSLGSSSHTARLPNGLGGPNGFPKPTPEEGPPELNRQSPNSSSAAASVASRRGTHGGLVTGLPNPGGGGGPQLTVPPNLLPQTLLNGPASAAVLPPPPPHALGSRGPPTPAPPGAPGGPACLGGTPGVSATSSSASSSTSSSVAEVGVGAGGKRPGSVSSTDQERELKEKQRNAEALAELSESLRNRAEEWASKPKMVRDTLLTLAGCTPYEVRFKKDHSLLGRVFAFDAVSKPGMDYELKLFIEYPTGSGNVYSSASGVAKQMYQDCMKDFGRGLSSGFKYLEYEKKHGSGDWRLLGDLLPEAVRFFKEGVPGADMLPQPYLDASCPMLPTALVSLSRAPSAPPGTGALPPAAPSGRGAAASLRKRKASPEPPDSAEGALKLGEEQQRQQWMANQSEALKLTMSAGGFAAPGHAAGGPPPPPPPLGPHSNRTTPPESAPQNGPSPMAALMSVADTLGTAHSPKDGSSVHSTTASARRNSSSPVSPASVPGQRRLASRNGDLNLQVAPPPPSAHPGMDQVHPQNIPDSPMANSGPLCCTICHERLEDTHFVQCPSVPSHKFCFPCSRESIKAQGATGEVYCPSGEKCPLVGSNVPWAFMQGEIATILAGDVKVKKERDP
# UniProt O75449: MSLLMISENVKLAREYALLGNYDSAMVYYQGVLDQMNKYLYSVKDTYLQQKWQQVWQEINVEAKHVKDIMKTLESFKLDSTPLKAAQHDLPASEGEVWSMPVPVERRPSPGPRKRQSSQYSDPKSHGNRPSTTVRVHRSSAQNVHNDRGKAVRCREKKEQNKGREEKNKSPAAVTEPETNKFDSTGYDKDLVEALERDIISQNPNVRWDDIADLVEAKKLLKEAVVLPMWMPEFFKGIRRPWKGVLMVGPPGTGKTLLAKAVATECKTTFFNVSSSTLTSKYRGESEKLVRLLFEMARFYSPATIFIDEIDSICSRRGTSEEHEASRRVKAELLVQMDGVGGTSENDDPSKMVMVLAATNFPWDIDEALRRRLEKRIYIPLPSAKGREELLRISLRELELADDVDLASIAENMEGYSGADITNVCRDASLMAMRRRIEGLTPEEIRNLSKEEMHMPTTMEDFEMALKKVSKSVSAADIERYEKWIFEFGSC
# UniProt Q7L273: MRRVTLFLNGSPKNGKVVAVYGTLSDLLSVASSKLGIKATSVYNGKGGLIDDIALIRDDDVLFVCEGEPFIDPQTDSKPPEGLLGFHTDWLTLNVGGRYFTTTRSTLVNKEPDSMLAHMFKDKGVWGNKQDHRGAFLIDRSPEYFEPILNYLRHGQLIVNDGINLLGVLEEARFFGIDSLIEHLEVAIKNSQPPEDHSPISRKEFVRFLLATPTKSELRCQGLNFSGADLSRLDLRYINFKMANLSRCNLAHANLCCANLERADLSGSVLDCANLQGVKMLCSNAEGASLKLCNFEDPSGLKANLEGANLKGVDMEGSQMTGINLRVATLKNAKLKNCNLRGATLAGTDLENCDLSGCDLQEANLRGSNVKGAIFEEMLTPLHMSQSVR
# UniProt Q13303: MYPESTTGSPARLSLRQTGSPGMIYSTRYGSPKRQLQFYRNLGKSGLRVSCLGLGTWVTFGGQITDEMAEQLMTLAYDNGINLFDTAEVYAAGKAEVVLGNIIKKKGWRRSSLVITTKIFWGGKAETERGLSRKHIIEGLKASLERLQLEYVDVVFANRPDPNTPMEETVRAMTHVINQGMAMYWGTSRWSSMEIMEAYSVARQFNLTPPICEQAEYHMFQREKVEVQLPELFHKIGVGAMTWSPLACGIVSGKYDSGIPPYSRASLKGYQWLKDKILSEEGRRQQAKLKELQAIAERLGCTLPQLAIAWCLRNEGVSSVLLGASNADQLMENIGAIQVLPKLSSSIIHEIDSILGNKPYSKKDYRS
# UniProt Q96AB3: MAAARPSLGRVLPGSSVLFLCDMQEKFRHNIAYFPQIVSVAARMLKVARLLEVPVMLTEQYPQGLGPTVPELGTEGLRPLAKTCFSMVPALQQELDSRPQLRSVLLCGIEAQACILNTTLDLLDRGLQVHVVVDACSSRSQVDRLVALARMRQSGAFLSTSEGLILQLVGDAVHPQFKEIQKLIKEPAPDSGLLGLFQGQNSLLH
# UniProt Q7Z5Y7: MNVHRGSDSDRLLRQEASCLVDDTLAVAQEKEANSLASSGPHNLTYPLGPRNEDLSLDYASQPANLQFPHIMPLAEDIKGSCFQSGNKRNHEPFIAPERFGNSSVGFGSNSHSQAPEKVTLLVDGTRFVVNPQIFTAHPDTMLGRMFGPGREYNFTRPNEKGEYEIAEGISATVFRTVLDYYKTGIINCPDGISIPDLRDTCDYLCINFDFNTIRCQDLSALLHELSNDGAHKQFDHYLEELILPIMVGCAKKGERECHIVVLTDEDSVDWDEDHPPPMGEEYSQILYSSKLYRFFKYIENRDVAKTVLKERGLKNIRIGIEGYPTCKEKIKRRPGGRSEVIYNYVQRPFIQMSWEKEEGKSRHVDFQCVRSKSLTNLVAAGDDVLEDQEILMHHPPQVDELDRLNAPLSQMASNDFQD
# UniProt P48200: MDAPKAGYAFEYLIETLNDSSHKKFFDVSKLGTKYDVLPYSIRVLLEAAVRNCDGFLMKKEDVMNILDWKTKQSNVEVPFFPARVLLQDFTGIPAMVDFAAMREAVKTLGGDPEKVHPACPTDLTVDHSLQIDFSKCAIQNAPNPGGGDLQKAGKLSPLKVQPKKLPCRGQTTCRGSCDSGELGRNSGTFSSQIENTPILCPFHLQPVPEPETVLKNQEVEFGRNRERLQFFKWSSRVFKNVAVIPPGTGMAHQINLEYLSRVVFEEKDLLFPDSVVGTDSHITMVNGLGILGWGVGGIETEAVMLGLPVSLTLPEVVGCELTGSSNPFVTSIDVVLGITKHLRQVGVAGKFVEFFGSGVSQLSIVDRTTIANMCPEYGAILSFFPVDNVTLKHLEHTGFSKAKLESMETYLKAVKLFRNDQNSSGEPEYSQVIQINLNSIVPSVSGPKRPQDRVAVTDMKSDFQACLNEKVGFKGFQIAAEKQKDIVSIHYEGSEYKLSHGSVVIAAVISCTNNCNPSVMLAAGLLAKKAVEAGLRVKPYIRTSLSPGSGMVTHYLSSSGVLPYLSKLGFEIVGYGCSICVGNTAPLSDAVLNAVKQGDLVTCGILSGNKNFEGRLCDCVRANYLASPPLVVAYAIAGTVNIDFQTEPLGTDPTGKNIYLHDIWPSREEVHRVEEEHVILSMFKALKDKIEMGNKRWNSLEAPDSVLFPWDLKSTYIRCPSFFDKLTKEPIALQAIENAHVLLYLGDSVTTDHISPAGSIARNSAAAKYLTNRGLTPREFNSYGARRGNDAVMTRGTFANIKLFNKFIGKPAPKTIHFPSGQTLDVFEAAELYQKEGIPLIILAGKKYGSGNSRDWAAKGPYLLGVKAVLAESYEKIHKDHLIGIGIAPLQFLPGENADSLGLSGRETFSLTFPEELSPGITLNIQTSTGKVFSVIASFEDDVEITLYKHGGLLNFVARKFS
# UniProt P38570: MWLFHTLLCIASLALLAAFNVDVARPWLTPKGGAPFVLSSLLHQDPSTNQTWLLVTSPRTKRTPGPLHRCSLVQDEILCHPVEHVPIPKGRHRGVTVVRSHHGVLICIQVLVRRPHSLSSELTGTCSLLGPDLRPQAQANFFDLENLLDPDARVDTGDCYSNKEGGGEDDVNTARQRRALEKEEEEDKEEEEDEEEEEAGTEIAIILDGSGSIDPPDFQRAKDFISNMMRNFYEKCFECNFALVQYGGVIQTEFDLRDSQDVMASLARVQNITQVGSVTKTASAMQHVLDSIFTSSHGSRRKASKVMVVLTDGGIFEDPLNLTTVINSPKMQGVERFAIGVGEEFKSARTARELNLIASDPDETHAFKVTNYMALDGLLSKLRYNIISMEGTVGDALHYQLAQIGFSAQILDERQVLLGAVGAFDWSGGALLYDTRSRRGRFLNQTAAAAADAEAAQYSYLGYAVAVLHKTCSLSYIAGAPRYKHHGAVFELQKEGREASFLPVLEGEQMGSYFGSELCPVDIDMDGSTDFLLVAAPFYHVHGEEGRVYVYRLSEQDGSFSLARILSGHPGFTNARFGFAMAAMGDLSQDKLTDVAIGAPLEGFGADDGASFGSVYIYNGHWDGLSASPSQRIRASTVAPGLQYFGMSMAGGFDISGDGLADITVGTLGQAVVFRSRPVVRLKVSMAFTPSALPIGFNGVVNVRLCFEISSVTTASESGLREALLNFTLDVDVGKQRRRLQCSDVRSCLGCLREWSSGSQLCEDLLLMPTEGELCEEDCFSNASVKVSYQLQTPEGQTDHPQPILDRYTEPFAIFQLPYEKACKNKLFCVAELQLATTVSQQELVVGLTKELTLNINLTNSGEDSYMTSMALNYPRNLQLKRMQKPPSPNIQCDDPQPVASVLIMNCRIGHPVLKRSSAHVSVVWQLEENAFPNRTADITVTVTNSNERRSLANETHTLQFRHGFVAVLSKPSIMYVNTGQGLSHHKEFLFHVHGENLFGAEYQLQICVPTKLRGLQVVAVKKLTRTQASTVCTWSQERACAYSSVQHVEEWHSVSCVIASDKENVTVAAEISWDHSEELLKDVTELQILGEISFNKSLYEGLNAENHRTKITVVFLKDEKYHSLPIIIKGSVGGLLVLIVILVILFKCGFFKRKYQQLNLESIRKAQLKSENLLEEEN
# UniProt Q9ULR0: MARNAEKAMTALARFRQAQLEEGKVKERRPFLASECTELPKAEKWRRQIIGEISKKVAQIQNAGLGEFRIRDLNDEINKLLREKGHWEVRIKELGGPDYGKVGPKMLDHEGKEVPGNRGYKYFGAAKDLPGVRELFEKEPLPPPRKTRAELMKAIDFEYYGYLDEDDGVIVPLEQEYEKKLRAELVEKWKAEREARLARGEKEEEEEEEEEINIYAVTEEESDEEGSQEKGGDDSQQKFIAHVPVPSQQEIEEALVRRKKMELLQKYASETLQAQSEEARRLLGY
# UniProt O14713: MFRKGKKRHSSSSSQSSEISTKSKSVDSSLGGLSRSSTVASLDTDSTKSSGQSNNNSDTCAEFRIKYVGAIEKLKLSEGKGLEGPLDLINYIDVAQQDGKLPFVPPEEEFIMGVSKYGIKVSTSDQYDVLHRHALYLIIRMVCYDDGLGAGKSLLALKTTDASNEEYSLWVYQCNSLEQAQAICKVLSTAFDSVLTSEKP
# UniProt Q9BUE6: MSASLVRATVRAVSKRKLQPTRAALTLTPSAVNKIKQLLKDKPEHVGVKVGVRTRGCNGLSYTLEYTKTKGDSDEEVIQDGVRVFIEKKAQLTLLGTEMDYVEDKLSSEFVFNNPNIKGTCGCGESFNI
# UniProt Q9H7Z6: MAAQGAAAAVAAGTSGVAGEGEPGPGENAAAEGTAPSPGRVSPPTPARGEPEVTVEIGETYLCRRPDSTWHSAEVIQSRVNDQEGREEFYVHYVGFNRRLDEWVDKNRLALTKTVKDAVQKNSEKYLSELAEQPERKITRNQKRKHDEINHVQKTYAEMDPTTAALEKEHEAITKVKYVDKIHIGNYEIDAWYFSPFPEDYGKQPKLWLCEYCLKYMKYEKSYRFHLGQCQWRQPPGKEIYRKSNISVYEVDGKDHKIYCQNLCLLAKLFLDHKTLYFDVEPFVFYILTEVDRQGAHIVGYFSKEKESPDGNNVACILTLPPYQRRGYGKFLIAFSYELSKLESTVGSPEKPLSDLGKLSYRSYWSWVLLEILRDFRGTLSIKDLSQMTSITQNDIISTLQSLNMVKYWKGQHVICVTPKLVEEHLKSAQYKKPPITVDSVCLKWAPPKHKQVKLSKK
# Some of the results follow.
# Compound: c1ccc([C@@H]2C[C@H]2NC2CCNCC2)cc1
# Experiment: log2 fold change, soluble protein after heating vs DMSO (PISA); higher = thermal stabilisation; K562 lysate, 10 uM; active = over 0.2 and 3.5 SD of the protein, either way, in both replicates (recomputed)
# Procedure, shortened: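 Quantification was by TMTpro 16plex LC-MS/MS with equalised channel sums, applied to the supernatant after 21,000xg for 90 min. Samples were crude K562 extract at 1 mg/mL protein in PBS pH 7.4 with 1 mM MgCl2, treated with 10 μM compound for 30 min, heated for 3 min across 48°C-58°C, pooled and brought to 0.5% NP-40 at 4°C. Values are log-two fold changes in thermal stability relative to solvent controls, from duplicates.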
row,Target,log2 fold change
1,IRAK1 (UniProt P51617),inactive: 0.026
2,IRF2BPL (UniProt Q9H1B7),inactive: -0.134
3,KATNA1 (UniProt O75449),inactive: -0.001
4,KATNAL1 (UniProt Q9BW62),inactive: -0.002
5,IPO11 isoform 2 (UniProt Q9UI26),inactive: 0.017
6,ITPR1 (UniProt Q14643),inactive: -0.115
7,KCTD15 (UniProt Q96SI1),inactive: -0.015
8,KANSL3 (UniProt Q9P2N6),inactive: -0.034
9,KCTD9 (UniProt Q7L273),inactive: -0.017
10,KCTD2 (UniProt Q14681),inactive: 0.278
11,ITIH2 (UniProt P19823),inactive: 0.01
12,KCTD5 (UniProt Q9NXV2),inactive: -0.033
13,ITM2A (UniProt O43736),inactive: 0.165
14,JMJD6 isoform 3 (UniProt Q6NYC1),inactive: 0.028
15,KCNAB2 (UniProt Q13303),inactive: -0.044
16,ISOC2 (UniProt Q96AB3),inactive: -0.031
17,KDM3A (UniProt Q9Y4C1),inactive: 0.123
18,KCTD20 (UniProt Q7Z5Y7),inactive: 0.078
19,KDM1B (UniProt Q8NB78),inactive: -0.055

row,Target,log2 fold change
1,ISCU (UniProt Q9H1K1),inactive: 0.014
2,IQCB1 (UniProt Q15051),inactive: 0.054
3,KBTBD2 (UniProt Q8IY47),inactive: -0.119
4,IREB2 (UniProt P48200),inactive: 0
5,IRF2BP1 (UniProt Q8IU81),inactive: -0.045
6,ITGAE (UniProt P38570),inactive: -0.237
7,INTS14 (UniProt Q96SY0),inactive: 0.009
8,ISY1 isoform 1 (UniProt Q9ULR0),inactive: -0.004
9,IQSEC2 (UniProt Q5JU85),inactive: 0.014
10,IRF2 (UniProt P14316),inactive: -0.037
11,ITGB1BP1 (UniProt O14713),inactive: -0.063
12,JAK3 (UniProt P52333),inactive: 0.254
13,IQUB (UniProt Q8NA54),inactive: 0.042
14,ISCA2 (UniProt Q86U28),inactive: -0.031
15,ISCA1 isoform 2 (UniProt Q9BUE6),inactive: 0.099
16,KAT6B (UniProt Q8WYB5),inactive: -0.179
17,INTS4 (UniProt Q96HW7),inactive: 0.011
18,KAT8 (UniProt Q9H7Z6),inactive: 0.063

# A portion from further up, for reference:
row,Target,log2 fold change
7,KCTD15 (UniProt Q96SI1),inactive: -0.015
8,KANSL3 (UniProt Q9P2N6),inactive: -0.034
9,KCTD9 (UniProt Q7L273),inactive: -0.017
10,KCTD2 (UniProt Q14681),inactive: 0.278
11,ITIH2 (UniProt P19823),inactive: 0.01
12,KCTD5 (UniProt Q9NXV2),inactive: -0.033
13,ITM2A (UniProt O43736),inactive: 0.165
14,JMJD6 isoform 3 (UniProt Q6NYC1),inactive: 0.028
15,KCNAB2 (UniProt Q13303),inactive: -0.044
16,ISOC2 (UniProt Q96AB3),inactive: -0.031
